Measured values: paper doi:10.1101/2020.07.20.209130

Protein sequences, listed by entry. Tags and fused reporters are not part of them. Lines headed by an entry give the natural chain unless they say otherwise; changes in a name come on top.
UniProt Q9NVM9: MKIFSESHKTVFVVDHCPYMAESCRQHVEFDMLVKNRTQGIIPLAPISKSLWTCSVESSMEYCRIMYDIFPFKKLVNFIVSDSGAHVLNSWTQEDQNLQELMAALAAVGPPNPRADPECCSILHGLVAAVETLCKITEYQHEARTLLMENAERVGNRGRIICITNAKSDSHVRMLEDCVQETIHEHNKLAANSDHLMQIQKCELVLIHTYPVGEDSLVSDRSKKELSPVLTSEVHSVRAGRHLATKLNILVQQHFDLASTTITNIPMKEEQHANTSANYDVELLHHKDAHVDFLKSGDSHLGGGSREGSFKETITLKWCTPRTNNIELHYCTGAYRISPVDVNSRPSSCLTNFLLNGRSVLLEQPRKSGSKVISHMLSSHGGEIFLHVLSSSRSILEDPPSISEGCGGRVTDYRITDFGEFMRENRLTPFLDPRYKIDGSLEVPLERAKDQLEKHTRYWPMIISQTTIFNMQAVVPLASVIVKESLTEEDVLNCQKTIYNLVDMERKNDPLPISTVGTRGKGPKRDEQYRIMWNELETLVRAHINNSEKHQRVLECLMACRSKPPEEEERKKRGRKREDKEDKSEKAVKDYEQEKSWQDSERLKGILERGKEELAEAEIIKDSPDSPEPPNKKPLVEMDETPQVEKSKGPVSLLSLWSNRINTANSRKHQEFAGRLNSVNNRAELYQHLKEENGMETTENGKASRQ
UniProt Q9NVR2: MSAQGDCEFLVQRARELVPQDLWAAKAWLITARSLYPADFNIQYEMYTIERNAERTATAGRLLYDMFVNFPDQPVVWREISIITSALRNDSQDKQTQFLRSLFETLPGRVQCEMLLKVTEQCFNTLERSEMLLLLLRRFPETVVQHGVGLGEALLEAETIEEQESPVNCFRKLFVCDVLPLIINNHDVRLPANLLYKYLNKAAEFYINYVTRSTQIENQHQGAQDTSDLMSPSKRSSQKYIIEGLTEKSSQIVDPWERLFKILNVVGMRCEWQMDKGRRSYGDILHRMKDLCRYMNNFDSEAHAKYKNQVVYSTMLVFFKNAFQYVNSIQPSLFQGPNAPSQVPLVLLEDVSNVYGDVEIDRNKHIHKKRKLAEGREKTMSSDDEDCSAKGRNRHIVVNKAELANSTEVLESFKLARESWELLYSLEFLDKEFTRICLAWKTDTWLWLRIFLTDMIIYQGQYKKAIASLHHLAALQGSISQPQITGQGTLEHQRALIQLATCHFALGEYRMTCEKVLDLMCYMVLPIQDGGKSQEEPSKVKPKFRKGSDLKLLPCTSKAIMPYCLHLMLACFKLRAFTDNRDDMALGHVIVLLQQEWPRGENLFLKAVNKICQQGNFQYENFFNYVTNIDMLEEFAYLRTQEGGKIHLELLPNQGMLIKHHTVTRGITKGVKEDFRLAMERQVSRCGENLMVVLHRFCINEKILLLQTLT

T1: FLAG-dIntS13 wild type (Drosophila S2 stable line) (Drosophila) (UniProt Q9VEX5)
T1 sequence: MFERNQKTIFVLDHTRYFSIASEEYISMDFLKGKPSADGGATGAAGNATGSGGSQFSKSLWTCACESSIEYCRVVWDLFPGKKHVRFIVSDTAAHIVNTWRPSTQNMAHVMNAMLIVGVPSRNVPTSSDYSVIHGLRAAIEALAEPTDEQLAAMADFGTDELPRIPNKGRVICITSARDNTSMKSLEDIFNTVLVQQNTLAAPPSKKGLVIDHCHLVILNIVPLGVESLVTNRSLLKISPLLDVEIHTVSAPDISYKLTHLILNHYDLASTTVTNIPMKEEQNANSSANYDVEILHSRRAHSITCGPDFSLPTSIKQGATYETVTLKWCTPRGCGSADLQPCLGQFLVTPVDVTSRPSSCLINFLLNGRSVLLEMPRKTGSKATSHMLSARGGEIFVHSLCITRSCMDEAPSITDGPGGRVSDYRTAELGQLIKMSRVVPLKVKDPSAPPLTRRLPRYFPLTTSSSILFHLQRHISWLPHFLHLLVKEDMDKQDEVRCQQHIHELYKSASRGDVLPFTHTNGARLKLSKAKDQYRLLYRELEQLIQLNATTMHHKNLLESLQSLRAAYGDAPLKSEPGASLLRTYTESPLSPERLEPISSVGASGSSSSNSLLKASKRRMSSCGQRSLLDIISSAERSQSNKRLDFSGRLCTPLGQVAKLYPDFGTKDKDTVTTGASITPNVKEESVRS

B1: dIntS10, endogenous in Drosophila S2 cells (protein, UniProt Q9VZM7 1-631)
chain: MPSQEENELYMVKEAQRLRKSDPCAAMAWIITAKTLYPNAFNLQYEAYLLERDAQNYEEAAKCFSAIATNFQNQHTELWQEINSLTNALRNENETTPEHEFYVKMYKHLTPEVQHNIFMHTINHSADNLERIYIYILMFNKFPKSAITQAPRLLEMLAEGMKTEPDLYQRILVEEVLPMIQNKPPELSPNLACRLYTSSLEFYLRQIMDESDTADAWKNIFKVLMICGQMMGWEPFLPFSKHVNQNVYWEKLVDILSGSPAGSSQVLFYATTLFIYSLHGYIRNCKLRIEDADVTHVLVEGFMEWSPEGDGSEVPSMEPPKFSLTTAISPELSKAFLHAAQCWQLLNTDQFQRDFSQLMLALPLAPWISRFLFDLAIYFGHRDEANKLMADMTTQSSLVQSLQILSLNLMQGSMTLQGFQCILKILSELPTTQGQLLENMSLKGHRHMVFLPLTRSALVQYCVGAIISRLSRKVFEPNVPDRLLGDILVLQQLNLLNDVLLTQQIFNLIKQRKSFNLRTLSTYIINIDLLEELSHIWNSQQEDNFELTSSPNSSGTPTATTVAGGSQSRRIGTRGADKGARDEFRAITRQQIARCNENVITLLANFINQEHLMLAQHIFGISQPVETIVIK
B2: dIntS14, endogenous in Drosophila S2 cells (protein, UniProt Q9VPY0 1-587)
chain: MPTLIALDASLSMLRPVPGRNEHTYQSLATKGIQHLLDNLTAAGKLEHVALLSYSTTAELKVDFTRDYDQVRQAVKKVEPVDKACLMSMLKAVVSIMSPWGNQNILQVVVFTDCGLGFGNTSITGFLEAYAEKESEPEFGFLKTLANYNLNFICLGLHGDYYFTRGLAVYQQLLDKVSLKGQLFMTKPAKSSDAVEGNPNPNPNPSHKSELGRTTVFELIERLCEASYKSSEVTLKCGSYFRMEASVLLWPPTAPYEQKSHIFGREPTIRHTDQKIEVCGFLSLSDIGSPATLSRHWVLPKVEREKSGSSRRSGNLSAAAKPPKLNLDTSNPNYELEKLEADIKEFYAKDSKDTEESGDDDVTIVLKPGPQTEQQKENLCVLLHGALKMENMAALVRVGDKWYGFIYAFTDSKKKSNLMLNILPPGTNVIPWLGDLESLGFPEDLAPGETASFPVRADRRSYSQSSVVWIRQASLQSDVQKVLRHAKKMPDKTQHFYKELNRIRRAALALGFVELLEALAMLLEKECAHLSLNGASNDCTLQLQHAATELRKTSNRDMKSMIVPLQKVGASDAGSTAATAPAPAYMY

What was measured:
[1] = target: FLAG-INTS13 Family 2 mutant p.S652L (HEK-293T stable line) (human) (UniProt Q9NVM9); assay: affinity purification with mass spectrometry + co-IP
[2] = target: T1, FLAG-dIntS13 wild type (Drosophila S2 stable line) (Drosophila); assay: as above

Row | Molecule | binding [1] | binding [2]
1 | INTS10, endogenous in HEK-293T (from UniProt Q9NVR2 1-710) | binds | 
2 | B1 |  | binds
3 | B2 |  | binds

These are yes or no findings as the source states them, for the method shown. In cells and extracts the contact can be indirect. Here binding means that the protein was enriched with, or labelled near, the bait; the list need not be complete. For part of these data: Sequences can lack the tags named with a protein.
